This note sets out measurements from the supplement of paper PMC9549374.

The list shows a part of the results. No stated cut-off is given here; in the data, active = 2-fold of DMSO or more and inactive = the rest. Single values of this set are uncertain. Some low values are a fixed figure set by the source, not a measured ratio.

The test system of the test is CM7/1-hgem mouse ES cell-derived cardiomyocytes. Briefly: maximal number of mAG-hGem(1/110)-positive cardiomyocytes over 96 h, fold-change vs DMSO; higher = more cardiomyocyte cell cycle activity. The following applies: 1 µM; 96 (max over 12 h time points) h.
In the case of `[N-]=[N+]=CC(=O)OC[C@H](N)C(=O)O`, the maximal number was inactive: 1.

Consider `COc1cc(OC)c(OC)cc1C=O`, for which the maximal number was inactive: 1.

In the case of `O=c1cccc2n1C[C@@H]1CNC[C@H]2C1`, the maximal number was inactive: 1.

Consider `CC1CC(Cl)CCC1C(=O)OC(C)(C)C` (stereo unspecified), for which the maximal number is inactive: 1.

As for `CNc1ccccc1C(=O)O`, the maximal number was active: 2.

Turning to `O=C(N/N=C/c1ccc([N+](=O)[O-])o1)c1cc([N+](=O)[O-])cc([N+](=O)[O-])c1O`, the maximal number was inactive: 1.

On to `CC(=O)O[C@@H]1C[C@H]2C(C)(C)C(=O)C=C[C@]2(C)[C@H]2CC[C@]3(C)C(=CC(=O)O[C@H]3c3ccoc3)[C@@]21C`, for which the maximal number was inactive: 0.

Consider `C[C@@H]1C[C@H](O)[C@@]2(O)[C@]13CC(=O)OC[C@@]2(C)[C@@](C)(O)C(=O)C3`, for which the maximal number is inactive: 1.

On to `CC[C@@]1(O)C[C@H](O)c2c(cc3c(c2O)C(=O)c2c(O)ccc(O)c2C3=O)[C@H]1C(=O)OC`, for which the maximal number is inactive: 1.

Turning to `CCC(=O)O[C@H]1CC[C@H]2[C@@H]3CCC4=CC(=O)CC[C@]4(C)[C@H]3CC[C@]12C`, the maximal number was inactive: 1.

Turning to `C[C@]12CC[C@H]3[C@@H](CC[C@@]45O[C@@H]4C(O)=C(C#N)C[C@]35C)[C@@H]1CC[C@@H]2O`, the maximal number is inactive: 1.

On to `CC(=O)OC1CCC23C(=O)OC45CCC(C6=CC(=O)OC6)C4(C)CCC2C5CCC3(O)C1` (stereo unspecified), for which the maximal number was inactive: 0.

With `C[C@H]1C(=O)O[C@@H]2CCN3CC=C(COC(=O)[C@](C)(O)[C@]1(C)O)[C@H]23`, the maximal number was inactive: 0.

As to `C[C@@H]1CC[C@@]2(OC1)O[C@H]1[C@@H](O)[C@H]3[C@@H]4CC[C@H]5C[C@@H](O[C@@H]6O[C@H](CO)[C@H](O[C@@H]7O[C@H](CO)[C@@H](O)[C@H](O[C@@H]8OC[C@@H](O)[C@H](O)[C@H]8O)[C@H]7O[C@@H]7O[C@H](CO)[C@H](O)[C@H](O[C@@H]8O[C@H](CO)[C@@H](O)[C@H](O)[C@H]8O)[C@H]7O)[C@H](O)[C@H]6O)[C@H](O)C[C@]5(C)[C@H]4CC[C@]3(C)[C@H]1[C@@H]2C`, the maximal number was inactive: 0.

On to `CO[C@H]1[C@H](O)[C@H](O[C@H]2CC[C@@]3(C=O)[C@H](CC[C@@H]4[C@@H]3CC[C@]3(C)[C@@H](C5=CC(=O)OC5)CC[C@]43O)C2)O[C@@H](C)[C@@H]1O`, for which the maximal number was active: 4.

As to `Oc1ccc2c3c1O[C@H]1[C@@H](O)CC[C@@]4(O)[C@@H](C2)N(CC2CCC2)CC[C@]314`, the maximal number was inactive: 1.

Turning to `NNCc1ccccc1`, the maximal number was inactive: 1.

Regarding `CCN(Cc1ccc(Cl)nc1)/C(=C/[N+](=O)[O-])NC`, the maximal number is inactive: 1.

Turning to `O=c1ccc2cc(O[C@@H]3O[C@H](CO)[C@@H](O)[C@H](O)[C@H]3O)c(O)cc2o1`, the maximal number is inactive: 1.

In the case of `O=c1n(Cl)c(=O)n(Cl)c(=O)n1Cl`, the maximal number is inactive: 0.

Regarding `N#C[C@H](O[C@@H]1O[C@H](CO[C@@H]2O[C@H](CO)[C@@H](O)[C@H](O)[C@H]2O)[C@@H](O)[C@H](O)[C@H]1O)c1ccccc1`, the maximal number is inactive: 1.

As to `CN(N)C=O`, the maximal number was inactive: 1.

Regarding `CC1(C)C(=O)C=C[C@@]2(C)C1=C(O)C(=O)[C@]1(C)[C@@H]2CC[C@@]2(C)[C@H](c3ccoc3)C[C@H]3O[C@]321`, the maximal number is inactive: 1.

Take `COc1cc2c(cc1OC)[C@H](C)NCC2`: the maximal number is inactive: 1.

Regarding `COc1ccc(/C=C/c2cc(O)cc(O)c2)cc1`, the maximal number was inactive: 1.

In the case of `C[C@]12CCC(=O)C[C@@H]1CC[C@@H]1[C@@H]2CC[C@]2(C)C(=O)CC[C@@H]12` [5alpha-ANDROSTAN-3,17-DIONE], the maximal number is inactive: 1.

For the compound `Nc1ccncc1`, the maximal number is inactive: 1.

For the compound `N#C/C(=C\c1cccc(O)c1)C(=O)O` [alpha-CYANO-3-HYDROXYCINNAMIC ACID], the maximal number is inactive: 1.

For the compound `C=C[C@H]1CN2CC[C@H]1C[C@H]2[C@H](O)c1ccnc2ccccc12`, the maximal number was inactive: 1.

Take `CC[C@@H](C(=O)[C@@H](C)[C@@H](O)[C@H](C)[C@@H]1O[C@@H]([C@@H](CC)C(=O)O)CC[C@@H]1C)[C@H]1O[C@]2(C=C[C@@H](O)[C@]3(CC[C@@](C)([C@H]4CC[C@](O)(CC)[C@H](C)O4)O3)O2)[C@H](C)C[C@@H]1C`: the maximal number was inactive: 1.

For `COc1cc(OC)c2c(c1)O[C@H](c1ccc(OC)c(OC)c1)[C@@H](O)C2`, the maximal number is inactive: 1.
